Test results reported in patent US20090048117A1, “MODULATION OF IMMUNE SYSTEM FUNCTION BY MODULATION OF POLYPEPTIDE ARGININE METHYLTRANSFERASES” (President and Fellows of Harvard College, priority 2003, published 2009).
Results are given in words; binding and its absence hold for the method and conditions named. For some assays here: Binding seen in cells or lysates may run through a third protein. Some binding calls cover weakened binding; strength is not graded here. For some assays here: Where a sequence is shown, tags or fusion partners need not be part of it. Each block holds one binder with its values, some of them ahead of it.

Chains of the proteins cited; added tags and fusions are not shown. Lines headed by an entry give the natural chain unless they say otherwise; changes in a name come on top.
UniProt Q99873: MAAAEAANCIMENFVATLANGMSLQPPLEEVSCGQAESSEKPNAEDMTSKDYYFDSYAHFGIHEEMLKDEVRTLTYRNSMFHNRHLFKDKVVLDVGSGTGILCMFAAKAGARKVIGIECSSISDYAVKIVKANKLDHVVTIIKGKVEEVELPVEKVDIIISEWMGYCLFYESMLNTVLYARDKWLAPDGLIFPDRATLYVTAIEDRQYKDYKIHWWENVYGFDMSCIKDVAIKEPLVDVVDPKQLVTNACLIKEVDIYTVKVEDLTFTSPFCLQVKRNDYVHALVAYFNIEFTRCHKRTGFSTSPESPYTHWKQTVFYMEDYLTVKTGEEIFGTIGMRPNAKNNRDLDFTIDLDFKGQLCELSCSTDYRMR
UniProt Q9JIF0: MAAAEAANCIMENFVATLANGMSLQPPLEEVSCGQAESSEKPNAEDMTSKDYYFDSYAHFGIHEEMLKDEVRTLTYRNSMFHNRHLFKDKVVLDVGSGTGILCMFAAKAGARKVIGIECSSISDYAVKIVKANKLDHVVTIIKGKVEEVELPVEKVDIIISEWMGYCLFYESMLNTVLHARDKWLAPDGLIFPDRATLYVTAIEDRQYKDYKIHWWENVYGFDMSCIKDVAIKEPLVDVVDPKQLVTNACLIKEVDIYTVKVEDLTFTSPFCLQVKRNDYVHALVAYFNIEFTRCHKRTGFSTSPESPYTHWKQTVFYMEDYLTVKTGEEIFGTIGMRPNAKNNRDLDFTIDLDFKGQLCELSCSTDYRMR

Assays:
[1] = target: PRMT1 of Jurkat cell lysates (human) (UniProt Q99873); assay: GST pull-down of Jurkat cell lysates, immunoblot with a monoclonal PRMT1 antibody
HA-tagged NFATc2 [2] = target: T1, HA-tagged NFATc2; assay: pull-down of HA-NFATc2-transfected Jurkat cell lysates with recombinant protein; full-length NIP45 is the reference
T1 sequence: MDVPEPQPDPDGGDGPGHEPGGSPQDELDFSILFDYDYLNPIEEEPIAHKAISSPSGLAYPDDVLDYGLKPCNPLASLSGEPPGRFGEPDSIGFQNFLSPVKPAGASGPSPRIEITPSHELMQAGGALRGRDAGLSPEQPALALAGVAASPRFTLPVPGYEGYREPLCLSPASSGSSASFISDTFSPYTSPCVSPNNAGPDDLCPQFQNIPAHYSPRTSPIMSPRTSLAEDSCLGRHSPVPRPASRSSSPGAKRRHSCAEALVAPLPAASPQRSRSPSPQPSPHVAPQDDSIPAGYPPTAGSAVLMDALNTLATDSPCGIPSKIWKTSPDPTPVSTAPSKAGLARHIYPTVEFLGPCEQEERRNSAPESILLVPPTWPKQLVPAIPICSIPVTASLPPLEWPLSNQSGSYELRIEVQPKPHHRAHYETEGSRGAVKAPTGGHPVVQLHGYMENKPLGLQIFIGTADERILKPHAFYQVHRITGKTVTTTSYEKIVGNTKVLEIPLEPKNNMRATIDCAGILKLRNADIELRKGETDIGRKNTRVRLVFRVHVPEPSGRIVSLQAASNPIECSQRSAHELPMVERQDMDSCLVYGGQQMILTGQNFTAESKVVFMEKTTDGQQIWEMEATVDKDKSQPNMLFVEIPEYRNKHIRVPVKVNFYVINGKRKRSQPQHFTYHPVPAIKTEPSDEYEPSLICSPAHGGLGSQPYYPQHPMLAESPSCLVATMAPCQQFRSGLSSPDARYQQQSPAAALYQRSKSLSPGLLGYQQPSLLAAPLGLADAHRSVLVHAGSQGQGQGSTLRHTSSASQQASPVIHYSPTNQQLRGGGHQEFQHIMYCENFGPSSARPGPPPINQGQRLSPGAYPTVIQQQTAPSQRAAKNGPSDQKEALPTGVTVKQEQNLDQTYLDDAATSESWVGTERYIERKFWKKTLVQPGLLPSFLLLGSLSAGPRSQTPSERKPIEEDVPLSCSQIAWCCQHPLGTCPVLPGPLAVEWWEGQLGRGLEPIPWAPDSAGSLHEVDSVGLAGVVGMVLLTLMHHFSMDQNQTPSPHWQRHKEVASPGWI

HA-tagged NFATc2 [3] = target: T1, HA-tagged NFATc2; assay: co-immunoprecipitation with anti-Myc agarose from transfected 293 cells left untreated or treated with 1 mM MTA, anti-HA immunoblot
HA-tagged NFATc2 [4] = target: T1, HA-tagged NFATc2; assay: co-immunoprecipitation with anti-Myc agarose from transfected 293T cells left untreated or treated with 1 mM MTA, anti-HA immunoblot
HA-tagged PRMT1 (murine) = HA-tagged PRMT1 (murine) (UniProt Q9JIF0); assay: co-immunoprecipitation with anti-Flag agarose from transfected 293T cells, anti-HA immunoblot
[5] = target: T2, endogenous NFATp of HepG2 cells (UniProt Q13469); assay: co-immunoprecipitation with anti-NFATp antibody from HepG2 cells transfected with NIP45-HA only, anti-HA Western blot
T2 sequence (looked up): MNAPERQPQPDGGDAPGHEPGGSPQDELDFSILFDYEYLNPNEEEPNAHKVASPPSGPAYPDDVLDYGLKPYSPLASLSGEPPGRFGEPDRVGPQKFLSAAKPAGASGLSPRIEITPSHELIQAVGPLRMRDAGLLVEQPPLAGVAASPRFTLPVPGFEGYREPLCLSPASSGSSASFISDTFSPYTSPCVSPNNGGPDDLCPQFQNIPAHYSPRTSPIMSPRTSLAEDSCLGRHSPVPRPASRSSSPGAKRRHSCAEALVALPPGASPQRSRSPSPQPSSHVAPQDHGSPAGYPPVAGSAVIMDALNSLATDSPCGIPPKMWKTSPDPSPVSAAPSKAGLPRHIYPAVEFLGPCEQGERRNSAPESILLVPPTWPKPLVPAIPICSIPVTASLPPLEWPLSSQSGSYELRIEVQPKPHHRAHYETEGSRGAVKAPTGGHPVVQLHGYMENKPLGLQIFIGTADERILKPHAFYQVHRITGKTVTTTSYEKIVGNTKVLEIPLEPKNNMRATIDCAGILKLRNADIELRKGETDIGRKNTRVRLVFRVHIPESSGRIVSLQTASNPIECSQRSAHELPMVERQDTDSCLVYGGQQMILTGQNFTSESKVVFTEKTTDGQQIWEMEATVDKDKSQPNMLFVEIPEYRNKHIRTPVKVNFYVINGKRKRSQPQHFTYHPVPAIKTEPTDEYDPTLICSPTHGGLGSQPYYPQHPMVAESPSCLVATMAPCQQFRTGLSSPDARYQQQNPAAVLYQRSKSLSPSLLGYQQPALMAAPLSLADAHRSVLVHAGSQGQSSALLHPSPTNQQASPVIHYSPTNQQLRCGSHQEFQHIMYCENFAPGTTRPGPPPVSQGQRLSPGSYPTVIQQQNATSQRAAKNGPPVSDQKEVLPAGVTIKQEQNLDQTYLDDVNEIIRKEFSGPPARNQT

[6] = target: T3, NFATc2 (form of the construct not stated); assay: association assay not described; ternary complex
T3 sequence: T1 sequence

[7] = target: PRMT1 (form of the construct not stated) (murine) (UniProt Q9JIF0); assay: association assay not described; ternary complex

binding (HA-tagged NFATc2 [3]): binds
binding (HA-tagged NFATc2 [4]): binds
B2: cMyc-tagged NIP45 (NIP45-MycHis) (protein, not shown: small tags and cut ends)
chain: MAEPLRGRGPRSRGGRGARRARGARGRCPRARQSPARLIPDTVLVDLVSDSDEEVLEVADPVEVPVARLPAPAKPEQDSDSDSEGAAEGPAGAPRTLVRRRRRRLLDPGEAPVVPVYSGKVQSSLNLIPDNSSLLKLCPSEPEDEADLTNSGSSPSEDDALPSGSPWRKKLRKKCEKEEKKMEEFPDQDISPLPQPSSRNKSRKHTEALQKLREVNKRLQDLRSCLSPKQHQSPALQSTDDEVVLVEGPVLPQSSRLFTLKIRCRADLVRLPVRMSEPLQNVVDHMANHLGVSPNRILLLFGESELSPTATPSTLKLGVADIIDCVVLASSSEATETSQELRLRVQGKEKHQMLEISLSPDSPLKVLMSHYEEAMGLSGHKLSFFFDGTKLSGKELPADLGLESGDLIEVWG

binding [6]: binds
binding [7]: binds
B5: NIP45 expressed from a NIP45 expression plasmid (protein)
chain: B2 chain

The remaining lines, values behind:

B1: GST-NIP45 fusion protein (bacterially expressed, full length NIP45) (protein, not shown: a dimerising Fc or GST)
chain: B2 chain
binding [1]: binds
binding (HA-tagged NFATc2 [2]): binds

B3: Flag-tagged NIP45 (full length) (protein, not shown: small tags and cut ends)
chain: B2 chain
binding (HA-tagged PRMT1 (murine)): binds

B4: HA-tagged NIP45 polypeptide (expression vector NIP45-HA, pCEP4-HA) (protein, not shown: small tags and cut ends)
chain: B2 chain
binding [5]: binds
